Article doi:10.1101/2024.03.27.587014

Protein sequences, listed by entry. Tags and fused reporters are not part of them.
UniProt P51818: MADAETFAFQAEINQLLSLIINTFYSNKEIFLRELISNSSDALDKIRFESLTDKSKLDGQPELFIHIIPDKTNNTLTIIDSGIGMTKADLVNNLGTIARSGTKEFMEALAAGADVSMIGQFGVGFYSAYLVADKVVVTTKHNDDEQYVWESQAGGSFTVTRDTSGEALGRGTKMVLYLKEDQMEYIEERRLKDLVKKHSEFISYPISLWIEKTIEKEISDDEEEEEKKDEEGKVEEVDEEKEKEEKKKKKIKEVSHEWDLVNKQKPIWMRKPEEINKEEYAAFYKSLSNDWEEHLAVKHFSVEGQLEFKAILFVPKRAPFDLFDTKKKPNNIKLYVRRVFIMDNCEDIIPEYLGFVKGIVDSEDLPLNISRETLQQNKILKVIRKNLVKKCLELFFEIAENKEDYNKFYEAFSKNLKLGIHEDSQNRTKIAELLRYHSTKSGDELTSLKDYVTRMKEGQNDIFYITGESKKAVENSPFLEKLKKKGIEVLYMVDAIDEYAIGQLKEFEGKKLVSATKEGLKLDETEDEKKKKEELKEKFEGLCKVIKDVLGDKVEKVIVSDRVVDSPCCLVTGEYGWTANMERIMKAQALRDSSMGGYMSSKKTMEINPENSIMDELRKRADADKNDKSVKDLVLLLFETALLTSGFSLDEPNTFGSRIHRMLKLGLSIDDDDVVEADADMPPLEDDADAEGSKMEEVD

Assays:
[1] = biological target: AtRPAP3mut2 (yeast two-hybrid fusion) (Arabidopsis) (UniProt Q5XF05); experiment: two-hybrid
[2] = biological target: AtRPAP3mut6 (yeast two-hybrid fusion) (Arabidopsis) (UniProt Q5XF05); experiment: two-hybrid
[3] = biological target: YFP-AtRPAP3mut2 (Arabidopsis) (UniProt Q5XF05); experiment: co-IP
[4] = biological target: YFP-AtRPAP3mut6 (Arabidopsis) (UniProt Q5XF05); experiment: co-IP

| Substance | binding [1] | binding [2] | binding [3] | binding [4] |
| --- | --- | --- | --- | --- |
| AtHSP90.3 (yeast two-hybrid fusion) (from UniProt P51818 1-699) | binds | no binding | – | – |
| myc-AtHSP90.3 (from UniProt P51818 1-699) | – | – | binds | no binding |

Results are given in words; binding and its absence hold for the method and conditions named. For some of these results: Binding calls can cover weak binding; strength is not graded here. For some of these results: Binding seen in cells or lysates may run through a third protein.
